Source: the supplement of paper PMC10849652
The other results are listed elsewhere or left out.

Protein sequences, listed by entry. Tags and fused reporters are not part of them. Lines headed by an entry give the natural chain unless they say otherwise; changes in a name come on top.
UniProt Q08357: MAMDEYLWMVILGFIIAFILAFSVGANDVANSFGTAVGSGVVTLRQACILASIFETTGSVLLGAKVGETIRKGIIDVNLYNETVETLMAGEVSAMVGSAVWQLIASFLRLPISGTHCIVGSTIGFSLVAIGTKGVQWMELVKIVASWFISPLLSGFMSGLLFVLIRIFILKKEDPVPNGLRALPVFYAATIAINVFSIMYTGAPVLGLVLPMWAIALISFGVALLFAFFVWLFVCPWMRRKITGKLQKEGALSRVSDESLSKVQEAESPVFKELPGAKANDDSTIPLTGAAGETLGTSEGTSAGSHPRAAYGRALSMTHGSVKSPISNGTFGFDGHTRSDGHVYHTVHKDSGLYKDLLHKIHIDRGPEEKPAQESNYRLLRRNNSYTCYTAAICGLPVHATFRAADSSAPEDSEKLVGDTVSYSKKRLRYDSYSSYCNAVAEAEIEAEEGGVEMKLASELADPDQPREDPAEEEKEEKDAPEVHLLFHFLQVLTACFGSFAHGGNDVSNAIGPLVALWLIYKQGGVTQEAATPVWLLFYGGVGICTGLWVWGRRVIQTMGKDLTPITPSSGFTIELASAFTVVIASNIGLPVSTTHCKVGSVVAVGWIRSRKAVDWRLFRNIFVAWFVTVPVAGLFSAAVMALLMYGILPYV
UniProt Q6IA17: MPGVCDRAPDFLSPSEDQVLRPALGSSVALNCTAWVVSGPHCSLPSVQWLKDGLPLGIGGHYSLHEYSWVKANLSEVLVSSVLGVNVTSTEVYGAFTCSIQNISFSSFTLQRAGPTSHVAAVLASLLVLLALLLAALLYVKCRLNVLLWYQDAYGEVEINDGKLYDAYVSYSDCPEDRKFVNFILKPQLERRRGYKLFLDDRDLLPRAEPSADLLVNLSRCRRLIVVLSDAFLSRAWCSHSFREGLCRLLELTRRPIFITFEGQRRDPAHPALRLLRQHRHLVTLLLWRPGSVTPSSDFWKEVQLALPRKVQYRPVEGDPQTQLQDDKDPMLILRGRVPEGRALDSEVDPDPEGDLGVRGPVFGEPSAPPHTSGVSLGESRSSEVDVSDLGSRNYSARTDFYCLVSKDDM
UniProt Q9UPS6, whole entry, looked up: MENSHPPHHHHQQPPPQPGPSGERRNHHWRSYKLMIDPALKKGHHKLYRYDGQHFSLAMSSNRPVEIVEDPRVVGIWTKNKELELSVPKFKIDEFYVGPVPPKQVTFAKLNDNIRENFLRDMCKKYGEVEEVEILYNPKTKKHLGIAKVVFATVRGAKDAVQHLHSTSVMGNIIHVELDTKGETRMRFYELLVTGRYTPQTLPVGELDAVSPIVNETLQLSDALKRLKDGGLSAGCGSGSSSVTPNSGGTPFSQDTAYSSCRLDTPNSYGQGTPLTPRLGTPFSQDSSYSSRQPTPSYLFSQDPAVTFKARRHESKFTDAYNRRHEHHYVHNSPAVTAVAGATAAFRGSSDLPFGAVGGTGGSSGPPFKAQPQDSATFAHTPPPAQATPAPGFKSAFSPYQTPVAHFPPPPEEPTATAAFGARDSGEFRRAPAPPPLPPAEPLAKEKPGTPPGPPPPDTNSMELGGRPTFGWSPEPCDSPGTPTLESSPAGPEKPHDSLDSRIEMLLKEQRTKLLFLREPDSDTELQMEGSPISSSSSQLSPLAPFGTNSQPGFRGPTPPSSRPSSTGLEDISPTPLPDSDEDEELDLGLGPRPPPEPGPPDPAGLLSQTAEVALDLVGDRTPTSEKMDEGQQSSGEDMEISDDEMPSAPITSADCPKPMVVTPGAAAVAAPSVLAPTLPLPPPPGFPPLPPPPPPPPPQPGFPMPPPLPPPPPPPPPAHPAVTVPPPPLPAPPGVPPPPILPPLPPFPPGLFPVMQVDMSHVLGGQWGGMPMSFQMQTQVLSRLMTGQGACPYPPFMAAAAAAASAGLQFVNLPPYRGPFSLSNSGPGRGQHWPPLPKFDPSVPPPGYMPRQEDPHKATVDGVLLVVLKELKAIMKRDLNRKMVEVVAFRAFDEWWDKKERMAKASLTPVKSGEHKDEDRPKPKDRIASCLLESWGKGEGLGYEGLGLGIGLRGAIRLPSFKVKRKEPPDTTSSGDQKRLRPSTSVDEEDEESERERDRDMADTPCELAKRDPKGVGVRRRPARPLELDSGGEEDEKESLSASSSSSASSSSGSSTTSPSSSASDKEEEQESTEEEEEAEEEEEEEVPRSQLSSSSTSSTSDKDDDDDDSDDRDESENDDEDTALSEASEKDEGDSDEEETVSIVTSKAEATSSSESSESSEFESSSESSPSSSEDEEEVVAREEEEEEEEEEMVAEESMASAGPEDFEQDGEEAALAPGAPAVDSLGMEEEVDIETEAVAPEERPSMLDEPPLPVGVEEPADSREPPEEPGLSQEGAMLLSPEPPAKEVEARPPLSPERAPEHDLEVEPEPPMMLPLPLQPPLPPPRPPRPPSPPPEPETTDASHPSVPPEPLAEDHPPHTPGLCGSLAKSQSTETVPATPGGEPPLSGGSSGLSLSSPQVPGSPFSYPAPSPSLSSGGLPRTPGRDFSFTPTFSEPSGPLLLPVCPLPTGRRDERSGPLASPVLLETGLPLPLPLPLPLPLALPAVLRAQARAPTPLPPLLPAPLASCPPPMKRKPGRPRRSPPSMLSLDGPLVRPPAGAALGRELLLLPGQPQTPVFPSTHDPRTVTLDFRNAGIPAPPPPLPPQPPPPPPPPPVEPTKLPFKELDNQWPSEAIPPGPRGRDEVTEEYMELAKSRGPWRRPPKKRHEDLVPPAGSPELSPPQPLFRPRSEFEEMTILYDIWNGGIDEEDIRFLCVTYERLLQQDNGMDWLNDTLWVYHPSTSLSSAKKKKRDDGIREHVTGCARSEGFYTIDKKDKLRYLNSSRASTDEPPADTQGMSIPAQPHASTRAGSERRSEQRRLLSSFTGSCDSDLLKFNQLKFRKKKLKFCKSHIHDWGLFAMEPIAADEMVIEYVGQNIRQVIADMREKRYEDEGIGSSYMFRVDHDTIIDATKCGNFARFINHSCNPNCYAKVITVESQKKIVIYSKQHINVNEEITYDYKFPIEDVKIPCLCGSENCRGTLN
UniProt O75182: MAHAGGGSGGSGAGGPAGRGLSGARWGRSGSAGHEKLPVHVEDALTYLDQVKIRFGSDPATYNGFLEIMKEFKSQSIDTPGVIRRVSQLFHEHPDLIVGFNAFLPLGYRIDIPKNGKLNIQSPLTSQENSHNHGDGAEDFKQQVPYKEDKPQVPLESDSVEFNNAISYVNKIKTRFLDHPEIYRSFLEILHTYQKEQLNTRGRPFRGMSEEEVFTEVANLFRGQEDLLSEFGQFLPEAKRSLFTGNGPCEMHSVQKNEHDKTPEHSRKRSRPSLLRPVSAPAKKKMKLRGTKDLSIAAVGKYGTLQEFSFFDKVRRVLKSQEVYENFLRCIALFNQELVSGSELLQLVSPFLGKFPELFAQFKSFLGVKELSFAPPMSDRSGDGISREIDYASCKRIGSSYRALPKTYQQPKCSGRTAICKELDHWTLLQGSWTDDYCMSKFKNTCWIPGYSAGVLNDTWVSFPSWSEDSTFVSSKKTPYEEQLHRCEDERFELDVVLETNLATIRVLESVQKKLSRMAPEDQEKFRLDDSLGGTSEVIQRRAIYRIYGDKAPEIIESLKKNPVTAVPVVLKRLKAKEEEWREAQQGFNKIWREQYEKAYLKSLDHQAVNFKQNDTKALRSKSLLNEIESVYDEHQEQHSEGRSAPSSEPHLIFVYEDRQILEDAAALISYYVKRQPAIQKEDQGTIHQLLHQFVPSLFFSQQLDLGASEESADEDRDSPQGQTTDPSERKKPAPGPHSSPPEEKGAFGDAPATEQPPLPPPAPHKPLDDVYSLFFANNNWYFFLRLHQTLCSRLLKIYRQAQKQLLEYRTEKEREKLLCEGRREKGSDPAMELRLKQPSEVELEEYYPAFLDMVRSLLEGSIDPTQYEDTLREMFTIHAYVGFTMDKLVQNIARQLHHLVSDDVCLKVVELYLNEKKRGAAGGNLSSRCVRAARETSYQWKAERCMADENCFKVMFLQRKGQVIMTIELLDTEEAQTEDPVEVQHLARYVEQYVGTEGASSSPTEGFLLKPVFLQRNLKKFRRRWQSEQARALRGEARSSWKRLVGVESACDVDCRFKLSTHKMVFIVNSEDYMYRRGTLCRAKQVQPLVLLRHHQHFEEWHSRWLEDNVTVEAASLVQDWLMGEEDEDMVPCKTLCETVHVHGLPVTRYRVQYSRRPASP
UniProt Q96HU1: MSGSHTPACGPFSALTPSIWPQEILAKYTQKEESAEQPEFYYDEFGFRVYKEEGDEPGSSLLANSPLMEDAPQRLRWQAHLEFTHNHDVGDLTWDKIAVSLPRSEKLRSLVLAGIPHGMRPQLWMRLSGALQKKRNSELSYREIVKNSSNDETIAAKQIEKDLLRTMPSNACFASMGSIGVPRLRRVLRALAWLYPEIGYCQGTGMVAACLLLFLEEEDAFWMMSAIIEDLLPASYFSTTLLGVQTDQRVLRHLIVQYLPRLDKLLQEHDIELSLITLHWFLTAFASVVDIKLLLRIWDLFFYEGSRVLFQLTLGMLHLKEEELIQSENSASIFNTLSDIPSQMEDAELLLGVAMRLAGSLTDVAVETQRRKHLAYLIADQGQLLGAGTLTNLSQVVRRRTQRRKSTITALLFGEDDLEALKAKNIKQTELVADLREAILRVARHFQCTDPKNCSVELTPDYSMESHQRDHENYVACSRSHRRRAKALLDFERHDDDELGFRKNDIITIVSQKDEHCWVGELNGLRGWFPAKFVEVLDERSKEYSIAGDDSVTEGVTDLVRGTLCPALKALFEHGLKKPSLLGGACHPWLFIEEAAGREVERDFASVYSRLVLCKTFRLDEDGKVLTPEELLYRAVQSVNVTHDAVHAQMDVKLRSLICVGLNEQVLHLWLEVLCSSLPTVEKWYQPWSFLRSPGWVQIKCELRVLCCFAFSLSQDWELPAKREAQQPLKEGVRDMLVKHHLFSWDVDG
UniProt Q15464: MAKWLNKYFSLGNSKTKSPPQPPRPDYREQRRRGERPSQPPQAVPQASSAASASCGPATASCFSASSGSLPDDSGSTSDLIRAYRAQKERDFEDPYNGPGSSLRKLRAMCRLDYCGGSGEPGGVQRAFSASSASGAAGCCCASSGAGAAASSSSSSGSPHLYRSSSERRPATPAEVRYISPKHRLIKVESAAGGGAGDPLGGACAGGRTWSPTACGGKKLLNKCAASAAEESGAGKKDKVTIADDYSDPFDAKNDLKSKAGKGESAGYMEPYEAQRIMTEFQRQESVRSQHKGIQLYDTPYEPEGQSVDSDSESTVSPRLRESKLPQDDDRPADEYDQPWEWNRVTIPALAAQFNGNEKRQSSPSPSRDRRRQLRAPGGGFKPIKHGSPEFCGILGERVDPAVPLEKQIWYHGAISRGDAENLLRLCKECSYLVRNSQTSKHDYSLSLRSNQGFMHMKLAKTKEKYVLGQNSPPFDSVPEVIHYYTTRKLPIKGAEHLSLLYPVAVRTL
UniProt Q8N196: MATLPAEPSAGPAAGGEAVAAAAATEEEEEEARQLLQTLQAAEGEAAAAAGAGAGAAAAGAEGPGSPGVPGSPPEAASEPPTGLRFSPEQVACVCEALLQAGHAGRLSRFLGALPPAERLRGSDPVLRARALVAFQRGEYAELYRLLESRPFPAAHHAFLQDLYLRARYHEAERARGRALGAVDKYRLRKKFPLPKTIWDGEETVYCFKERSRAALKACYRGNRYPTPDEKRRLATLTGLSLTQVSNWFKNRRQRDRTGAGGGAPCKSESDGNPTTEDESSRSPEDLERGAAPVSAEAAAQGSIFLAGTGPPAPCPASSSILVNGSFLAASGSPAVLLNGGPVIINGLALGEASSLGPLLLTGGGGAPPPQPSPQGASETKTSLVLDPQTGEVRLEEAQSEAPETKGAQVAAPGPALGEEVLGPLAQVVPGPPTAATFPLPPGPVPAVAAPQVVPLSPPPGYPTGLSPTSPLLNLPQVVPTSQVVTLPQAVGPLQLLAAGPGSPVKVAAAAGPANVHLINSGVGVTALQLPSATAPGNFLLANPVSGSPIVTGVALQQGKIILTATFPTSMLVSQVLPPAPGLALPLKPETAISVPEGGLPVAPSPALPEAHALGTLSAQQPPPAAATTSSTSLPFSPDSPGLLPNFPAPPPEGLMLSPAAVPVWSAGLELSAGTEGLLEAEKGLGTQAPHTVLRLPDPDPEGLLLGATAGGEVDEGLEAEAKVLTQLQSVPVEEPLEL

How the values were obtained:
Experiment in all cases: log2 fold change, soluble protein after heating vs DMSO (PISA); higher = thermal stabilisation; K562 lysate, 10 uM; active = over 0.2 and 3.5 SD of the protein, either way, in both replicates (recomputed)
[1] = compound: O=C(CCCCCCC(=O)Nc1ccccc1)NO [vorinostat]
In short: (§1)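 Quantification was by TMTpro 16plex LC-MS/MS with equalised channel sums, applied to the supernatant after 21,000xg for 90 min. Samples were crude K562 extract at 1 mg/mL protein in PBS pH 7.4 with 1 mM MgCl2, treated with 10 μM compound for 30 min, heated for 3 min across 48°C-58°C, pooled and brought to 0.5% NP-40 at 4°C. Values are log-two fold changes in thermal stability relative to solvent controls, from duplicates.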

[2] = compound: O=C(O)c1ccc2c(c1)nc(Nc1cccc(Cl)c1)c1ccncc12 [silmitasertib]
In short: as §1

[3] = compound: O=C1NC(=O)C(c2cnc3ccccn23)=C1c1cn2c3c(cc(F)cc13)CN(C(=O)N1CCCCC1)CC2
In short: as §1

[4] = compound: c1cn2cc(-c3ccc4cn[nH]c4c3)nc(Nc3ccc(N4CCOCC4)cc3)c2n1 [entospletinib]
In short: as §1

[5] = compound: NCC(=O)Nc1ccc(-n2nc(C(F)(F)F)cc2-c2ccc3c(ccc4ccccc43)c2)cc1
In short: as §1

Target | log2 fold change [1] | log2 fold change [2] | log2 fold change [3] | log2 fold change [4] | log2 fold change [5]
SLC12A6 isoform 2 (UniProt Q9UHW9) | inactive: 0.17 | inactive: -0.03 | inactive: -0.064 | inactive: -0.114 | –
SLAIN2 (UniProt D6RIF6) | – | – | inactive: -0.092 | – | –
SF3B2 (UniProt E9PJ04) | inactive: 0.269 | inactive: 0.019 | – | – | –
SIAE (UniProt Q9HAT2) | – | – | inactive: -0.082 | inactive: -0.012 | –
SLC20A2 (UniProt Q08357) | – | – | inactive: -0.049 | inactive: 0.042 | inactive: 0.051
SF1 (UniProt H7C0N4) | – | – | inactive: 0.114 | inactive: 0.065 | inactive: 0.081
SIGIRR (UniProt Q6IA17) | – | – | – | inactive: -0.006 | inactive: 0.103
SIK3 (UniProt Q9Y2K2) | inactive: 0.051 | inactive: 0.209 | inactive: -0.02 | inactive: 0.06 | –
SETD1B (UniProt Q9UPS6) | – | – | inactive: 0.057 | – | inactive: 0.077
SIN3B (UniProt O75182) | – | – | inactive: 0.559 | inactive: -0.089 | inactive: 0.195
SGSM3 isoform 2 (UniProt Q96HU1) | inactive: -0.216 | inactive: -0.027 | inactive: 0.022 | – | –
SH3KBP1 (UniProt Q96B97) | inactive: 0.005 | inactive: -0.012 | inactive: 0.123 | inactive: -0.066 | –
SHB (UniProt Q15464) | active: -0.356 | inactive: 0.117 | inactive: 0.044 | – | –
SIX5 (UniProt Q8N196) | inactive: 0.162 | inactive: -0.011 | inactive: -0.097 | – | –

Two records drawn at random from the list so far:
Target | log2 fold change [1] | log2 fold change [2] | log2 fold change [3] | log2 fold change [4] | log2 fold change [5]
SIGIRR (UniProt Q6IA17) | – | – | – | inactive: -0.006 | inactive: 0.103
SLC20A2 (UniProt Q08357) | – | – | inactive: -0.049 | inactive: 0.042 | inactive: 0.051
